Measured values: PubChem BioAssay AID1487 (National Center for Advancing Translational Sciences (NCATS), 2009)
The list shows a part of the results. These are further read-outs of the screen, such as a control signal, another cell line or another target. No call is given for them. Most of these compounds were active or inconclusive in the main read-out, so they are no random draw. Words in brackets tell the shape of the fitted curve; partial curves, single points and poor fits give uncertain potencies.

Assay: qHTS Assay for Modulators of Lamin A Splicing
Conditions: HeLa LMNA splicing GFP/RFP minigene ratio, 48 h
How it was run: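 S3 HeLa stable clones carrying a lamin A-EGFP splicing minigene plus DsRed2 were seeded at 600 cells/well in Opti-MEM with 2% FBS, pin-dosed and incubated 48 h at 37°C. Acumen cytometry (488 nm) gave the GFP/RFP total-intensity ratio.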

[1] = measured here: RFP viability control channel
[2] = measured here: GFP splicing reporter channel

| Structure (SMILES) | AC50 [1] | AC50 [2] |
| --- | --- | --- |
| O=C(NCC12CC3CC(CC(C3)C1)C2)c1nn2c(c1Cl)NC(c1ccco1)CC2C(F)(F)F (stereo not given) | 0.355 µM [falling, partial curve, poor fit] |  |
| COc1ccc(Cn2ccc3nc(C)c(C(=O)Nc4ccc(F)cc4)cc3c2=O)cc1 | 3.16 µM [rising, single point] | 2.51 µM [rising, partial curve] |
| CC(C)C(C)NC(=O)COc1ccc([N+](=O)[O-])cc1Cl (stereo not given) | 17.8 µM [rising, single point] |  |
| Nc1nc(Cl)cc(N2CCC(c3cc(-c4ccc(Cl)cc4)n[nH]3)CC2)n1 | 12.6 µM [falling, partial curve] | 35.5 µM [falling, single point] |
| Cc1noc(/C=C/N(C)C)c1S(=O)(=O)N1CCN(c2ccccc2)CC1 | 25.1 µM [rising, single point] |  |
| CCSc1nnc(NC(=O)c2cccc(S(=O)(=O)N(C)c3ccc(C)cc3)c2)s1 | 12.6 µM [rising, partial curve] |  |
| O=C(NC1CCCC1)C(=O)N(Cc1cccnc1)C(C(=O)NCC1CCCO1)c1ccco1 (stereo not given) |  | 7.08 µM [rising, partial curve, poor fit] |
| O=C(Nc1ccc(Cl)cc1)OCc1cncs1 | 22.4 µM [rising, single point] | 20 µM [rising, partial curve, poor fit] |
| COc1ccc(N=Nc2ccc(N)nc2N)cc1 | 35.5 µM [falling, partial curve, poor fit] | 20 µM [falling, partial curve, poor fit] |
| O=C(N/N=C/c1cc2c(cc1Br)OCO2)c1c[nH]c2ccccc12 | 0.126 µM [rising, full curve, poor fit] |  |
| O=C(O)c1ccccc1Nc1ccccc1 | 5.62 µM [falling, partial curve, poor fit] | 0.355 µM [falling, partial curve, poor fit] |
| COc1cccc(/C=N/NC(=O)CC(=O)NCCc2ccccc2)c1OC |  | 0.501 µM [rising, full curve, poor fit] |
| O=C(Nc1cccc(Cl)c1)N1CCN2C(=O)c3ccccc3C12c1ccccc1 (stereo not given) | 0.0794 µM [falling, full curve, poor fit] |  |
| O=C(COC(=O)c1ccc2[nH]c3c(c2c1)CCCC3)NC1CCS(=O)(=O)C1 (stereo not given) | 3.16 µM [falling, full curve] | 7.94 µM [falling, full curve, poor fit] |
| COC(=O)N1C(/C=C/c2ccc3c(c2)OCO3)=Cc2ccccc2C1CC(C)=O (stereo not given) | 0.1 µM [falling, full curve] |  |
| O=C(Nc1ccc(Cl)cc1)c1csc(-c2ccncc2)n1 | 7.94 µM [falling, partial curve, poor fit] |  |
| Cc1csc(NC(=O)c2ccc(C)c(S(=O)(=O)N3CCCCC3)c2)n1 | 14.1 µM [rising, single point] |  |
| O=C1CCc2cc(S(=O)(=O)NCc3ccc(Cl)cc3)cc3c2N1CC3 |  | 14.1 µM [falling, partial curve] |
| O=C(c1ccccc1-c1nc(-c2ccc(F)cc2)no1)N1CCCC1 | 7.94 µM [rising, partial curve] | 11.2 µM [rising, partial curve] |

| Structure (SMILES) | AC50 [1] | AC50 [2] |
| --- | --- | --- |
| COc1cc2c(cc1NC(=O)Nc1ccc(C)cc1)oc1ccccc12 | 35.5 µM [rising, single point] | 35.5 µM [rising, single point] |
| CCOC(=O)c1cnn(CC2CCCCC2)c1N | 11.2 µM [rising, single point] | 1 µM [rising, partial curve] |
| Cc1ccccc1CNC(=O)c1ccccc1NC(=O)c1nsc2ccccc12 | 8.91 µM [falling, partial curve, poor fit] |  |
| O=C(Nc1ccc(Cl)c(C(F)(F)F)c1)C1CCCN(S(=O)(=O)c2cccc3cccnc23)C1 (stereo not given) |  | 0.00447 µM [falling, full curve, poor fit] |
| Cc1ccc(CNC(=O)c2cc3cc(C)ccc3n2C)cc1 |  | 2.24 µM [falling, full curve] |
| CC(O)CNc1nc2c(c(=O)n(C)c(=O)n2C)n1CCc1ccccc1 (stereo not given) | 35.5 µM [rising, single point] |  |
| COc1cccc(Oc2cn[nH]c2-c2ccc(O)cc2O)c1 | 3.16 µM [rising, partial curve] |  |
| CCOc1ccc(C2c3[nH]c4ccccc4c3CCN2C(=O)CSc2ccccc2)cc1 (stereo not given) | 25.1 µM [rising, single point] |  |
| Cc1cc([N+](=O)[O-])nn1CC(=O)Nc1ccc(F)cc1 |  | 0.178 µM [rising, full curve] |
| O=C(Nc1ccc(Cc2ccncc2)cc1)c1cc(F)c(F)cc1Cl |  | 0.562 µM [rising, full curve] |
| CCCCn1c(=O)[nH]c(=O)c2c1nc(-c1ccccc1F)n2Cc1ccccc1OC | 8.91 µM [falling, partial curve, poor fit] | 11.2 µM [falling, partial curve, poor fit] |
| CCc1ccc(S(=O)(=O)NCc2cn3c(C)csc3n2)s1 | 25.1 µM [rising, single point] |  |
| N/C(=N\OC(=O)CCc1ccccc1)c1cccnc1 | 0.141 µM [falling, full curve] |  |
| CC(C)CC(=O)Nc1ccc(Nc2ccccc2)cc1 | 22.4 µM [rising, single point] |  |
| O=S(=O)(N/N=C\c1ccc(-c2ccccc2Cl)o1)c1ccccc1 | 31.6 µM [rising, single point] |  |
| O=C(COc1ccc(Br)cc1Cl)NC(=O)NCc1ccccc1 |  | 15.8 µM [rising, single point] |
| CCN(CC)C(=O)c1nn(-c2ccccc2)c2c1C1CCC2(C)C1(C)C (stereo not given) |  | 2.51 µM [rising, partial curve] |
| CCOc1cc(N2CCOCC2)c(OCC)cc1NC(=O)COC(=O)[C@@H]1CCCN1S(=O)(=O)c1ccccc1F | 15.8 µM [rising, single point] |  |
| Cn1nc([N+](=O)[O-])nc1S(C)(=O)=O |  | 25.1 µM [falling, single point] |

Single values from the list.
In AC50 [2], O=C(COc1ccc(Br)cc1Cl)NC(=O)NCc1ccccc1 shows 15.8 µM [rising, single point]
In AC50 [1], Cc1noc(/C=C/N(C)C)c1S(=O)(=O)N1CCN(c2ccccc2)CC1 shows 25.1 µM [rising, single point]

(cont.)

| Structure (SMILES) | AC50 [1] | AC50 [2] |
| --- | --- | --- |
| Cc1ccc(-c2nnc(N)s2)cc1 | 0.0631 µM [falling, full curve, poor fit] | 0.631 µM [falling, full curve, poor fit] |
| Nc1cc(=O)[nH]c(SCc2csc(-c3ccccc3)n2)n1 | 22.4 µM [rising, partial curve] | 7.08 µM [rising, full curve] |
| O=[N+]([O-])c1ccc(N2CCN(S(=O)(=O)c3ccccc3[N+](=O)[O-])CC2)cc1NCc1cccnc1 | 5.01 µM [rising, partial curve] | 6.31 µM [rising, full curve, poor fit] |
| O=C1CC(c2ccccc2)CC2=C1CN(C1CCCCC1)CN2 (stereo not given) | 35.5 µM [rising, single point] | 35.5 µM [rising, single point] |
| COC(=O)c1ccc(NC(=O)Nc2ccc3c(c2)nc(C)n3C)cc1 | 1 µM [falling, partial curve, poor fit] | 20 µM [falling, partial curve, poor fit] |
| O=C(CSc1nc2c([nH]c3ccccc32)c(=O)n1-c1ccc(Cl)cc1)NCc1ccccc1 | 35.5 µM [falling, single point] | 20 µM [falling, single point] |
| CCOC(=O)c1nc(NCCc2ccccc2)sc1C | 3.98 µM [rising, single point] |  |
| COc1cc(C(=O)Nc2ccc3c(c2)CCN3C(C)=O)cc(OC)c1OC | 1.41 µM [rising, partial curve] |  |
| CCC(=O)NCCNc1nc2cc(C)c(C)cc2cc1C#N | 0.282 µM [falling, full curve, poor fit] |  |
| CC1=C(C(=O)Nc2cc(Cl)ccc2C)C(c2ccccc2F)n2ncnc2N1 (stereo not given) |  | 0.141 µM [falling, partial curve, poor fit] |
| CN1CCN(C(CNC(=O)C(=O)Nc2ccccc2C#N)c2ccc3c(c2)OCO3)CC1 (stereo not given) | 0.0708 µM [falling, full curve, poor fit] |  |
| CCc1ccc(S(=O)(=O)NCc2cccn2Cc2cccc(C)c2)cc1 | 35.5 µM [falling, single point] | 35.5 µM [falling, single point] |
| Cc1cc(C=O)c(C)n1-c1ccc(NC2CCCCC2)c([N+](=O)[O-])c1 | 35.5 µM [falling, single point] | 35.5 µM [falling, single point] |
| CC(C)c1cc(NC(=O)CCl)on1 | 7.94 µM [rising, partial curve, poor fit] |  |
| O=C(Nc1cnn(Cc2ccc(F)cc2)c1)C(c1ccccc1)c1ccccc1 | 15.8 µM [rising, single point] |  |
| Cc1ccc2sc(N(CCCN(C)C)C(=O)c3ccco3)nc2c1C |  | 11.2 µM [falling, single point] |
| O=C(Nc1c(Cl)ccc2nsnc12)c1ccco1 |  | 0.316 µM [falling, partial curve] |
| Cc1ccc(-c2ncc(Cl)cc2-c2ccc(S(C)(=O)=O)cc2)cn1 | 0.000794 µM [rising, full curve, poor fit] | 0.000794 µM [rising, full curve, poor fit] |
